The values that follow come from paper PMC9712689.

Sequences of proteins named here, by UniProt entry; tags and fusion partners are left off. A change or cut given only in a name is not applied to a line headed by its entry. Residues count along the entry.
UniProt Q9HX24: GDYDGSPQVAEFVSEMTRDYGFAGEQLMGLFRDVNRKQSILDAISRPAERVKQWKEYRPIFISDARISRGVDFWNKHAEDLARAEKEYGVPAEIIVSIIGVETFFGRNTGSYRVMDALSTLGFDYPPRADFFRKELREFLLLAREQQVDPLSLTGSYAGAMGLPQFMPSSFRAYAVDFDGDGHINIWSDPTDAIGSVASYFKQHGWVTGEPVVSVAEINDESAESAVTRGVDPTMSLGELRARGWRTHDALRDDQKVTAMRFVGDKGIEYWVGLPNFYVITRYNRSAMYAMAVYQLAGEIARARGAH
UniProt Q9I4G6: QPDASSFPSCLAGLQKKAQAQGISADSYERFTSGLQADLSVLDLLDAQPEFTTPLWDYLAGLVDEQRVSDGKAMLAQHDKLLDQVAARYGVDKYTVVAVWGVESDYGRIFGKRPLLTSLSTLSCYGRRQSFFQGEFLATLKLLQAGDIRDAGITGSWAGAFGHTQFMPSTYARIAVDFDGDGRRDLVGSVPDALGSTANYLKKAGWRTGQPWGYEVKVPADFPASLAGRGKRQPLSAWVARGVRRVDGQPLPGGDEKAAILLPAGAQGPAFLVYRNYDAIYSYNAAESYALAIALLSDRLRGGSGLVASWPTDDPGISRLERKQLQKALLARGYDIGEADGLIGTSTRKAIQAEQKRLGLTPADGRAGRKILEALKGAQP
UniProt Q9HU67: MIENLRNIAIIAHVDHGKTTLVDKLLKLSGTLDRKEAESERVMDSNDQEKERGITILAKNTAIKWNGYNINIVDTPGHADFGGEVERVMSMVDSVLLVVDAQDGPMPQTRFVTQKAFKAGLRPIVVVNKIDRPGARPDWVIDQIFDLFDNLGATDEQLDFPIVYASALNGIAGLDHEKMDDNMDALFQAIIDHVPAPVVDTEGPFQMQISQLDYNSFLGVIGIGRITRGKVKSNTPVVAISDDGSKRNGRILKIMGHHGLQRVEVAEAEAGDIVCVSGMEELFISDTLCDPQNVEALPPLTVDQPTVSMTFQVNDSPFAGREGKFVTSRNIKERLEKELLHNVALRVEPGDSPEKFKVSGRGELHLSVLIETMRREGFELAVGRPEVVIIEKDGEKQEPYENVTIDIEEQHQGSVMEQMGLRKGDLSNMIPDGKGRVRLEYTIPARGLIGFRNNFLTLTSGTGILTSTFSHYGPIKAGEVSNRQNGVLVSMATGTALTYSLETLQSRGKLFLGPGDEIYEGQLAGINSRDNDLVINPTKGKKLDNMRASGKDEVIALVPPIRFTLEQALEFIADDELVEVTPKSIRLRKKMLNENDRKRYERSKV
UniProt Q9HXN1, residues 33-490: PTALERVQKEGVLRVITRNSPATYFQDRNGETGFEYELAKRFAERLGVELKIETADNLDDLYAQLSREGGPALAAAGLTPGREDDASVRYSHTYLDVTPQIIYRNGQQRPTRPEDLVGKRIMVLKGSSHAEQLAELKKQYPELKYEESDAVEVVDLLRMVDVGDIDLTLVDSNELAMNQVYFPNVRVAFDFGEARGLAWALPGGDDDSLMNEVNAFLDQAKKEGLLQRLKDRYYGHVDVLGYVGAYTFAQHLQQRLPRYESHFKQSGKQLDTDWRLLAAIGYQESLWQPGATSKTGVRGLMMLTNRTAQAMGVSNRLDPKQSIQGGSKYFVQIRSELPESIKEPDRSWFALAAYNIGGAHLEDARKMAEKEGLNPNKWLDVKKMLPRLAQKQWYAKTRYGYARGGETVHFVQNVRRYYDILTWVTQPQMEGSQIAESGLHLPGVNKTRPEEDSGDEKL

Results are given in words; binding and its absence hold for the method and conditions named. Binding seen in cells or lysates may run through a third protein. A yes stands for co-enrichment or nearness to the bait. Other partners may have been found.

Assay [1] deals with SltB1, N-terminal His-tagged construct (P. aeruginosa) (UniProt Q9HX24). The experiment in a line: affinity purification with mass spectrometry; N-terminally His-tagged LT on Ni-NTA resin incubated with the soluble or the 0.5% NP-40-solubilised membrane proteome of P. aeruginosa PAO1, 4 °C overnight; eluted with 500 mM imidazole; no cross-linker; only the target purified.
The target in assay [2] is SltB2, N-terminal His-tagged construct (P. aeruginosa) (UniProt Q9I4G6). Described as above.

Consider TypA (from UniProt Q9HU67), for which the binding entry in assay [1] and in assay [2] was “binds” each time.

Regarding PA3999 (from UniProt G3XD74), the binding entry in assay [1] is listed as “binds”.

As for MltF (from UniProt Q9HXN1 33-490), the binding result in assay [1] and in assay [2] was “binds” each time.
